Results are given in words; binding and its absence hold for the method and conditions named. Binding seen in cells or lysates may run through a third protein. Some results given as binding are weak or reduced against the parent protein; the word gives no strength.
Target: GFP-YBX1 (aa 130–205) (UniProt P67809)
Assay: co-IP; ACHN cells transfected with GFP-YBX1 or GFP-tagged YBX1 domains; lysates precipitated with GFP-Trap_MA beads; western blot with anti-G3BP1 (endogenous G3BP1)

Sequences of proteins named here, by UniProt entry; tags and fusion partners are left off. Residues count along the entry.
UniProt P67809, residues 130-205: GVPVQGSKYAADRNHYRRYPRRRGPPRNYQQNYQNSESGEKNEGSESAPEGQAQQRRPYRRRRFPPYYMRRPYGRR
UniProt Q13283: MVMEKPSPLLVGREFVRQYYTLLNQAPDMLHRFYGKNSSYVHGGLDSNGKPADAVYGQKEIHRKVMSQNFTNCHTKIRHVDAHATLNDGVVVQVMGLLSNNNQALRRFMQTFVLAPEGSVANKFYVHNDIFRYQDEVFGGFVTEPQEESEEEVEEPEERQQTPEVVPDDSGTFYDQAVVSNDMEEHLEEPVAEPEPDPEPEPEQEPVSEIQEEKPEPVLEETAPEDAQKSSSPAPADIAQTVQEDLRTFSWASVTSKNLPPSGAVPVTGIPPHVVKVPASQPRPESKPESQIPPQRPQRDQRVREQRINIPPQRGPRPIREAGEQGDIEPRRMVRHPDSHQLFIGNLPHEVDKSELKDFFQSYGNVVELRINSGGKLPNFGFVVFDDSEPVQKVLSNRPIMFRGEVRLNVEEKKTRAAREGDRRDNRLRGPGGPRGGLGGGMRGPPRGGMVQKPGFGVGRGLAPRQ

binding: binds
Substance: Ras-GTPase activating protein SH3 domain binding proteins 1 (G3BP1), endogenous (from UniProt Q13283 1-466)
